Measured values taken from patent US12577231B2, “Androgen receptor PROTACS” (GlaxoSmithKline Intellectual Property Development Limited, priority 2023, dated 2026).
Some entries share one result that the patent states for a list of compounds.

Legend:
[1] = target: T1, Androgen Receptor protein in human LnCaP cells (Homo sapiens, UniProt P10275, T878A); test: Androgen Receptor Degradation Assay (Nano-Glo HiBiT, LnCaP cells); assay type: cell-based; conditions: HiBiT-tagged AR LnCaP cells, 18 h incubation
T1 construct: the AR gene was modified, using CRISPR/Cas9 editing, so the expressed AR protein included an 11 amino acid HiBiT tag; endogenous in cells; host or cells: clonal LnCaP derived cell line, endogenous AR gene edited by CRISPR/Cas9
T1 sequence (P10275 1-920 T878A): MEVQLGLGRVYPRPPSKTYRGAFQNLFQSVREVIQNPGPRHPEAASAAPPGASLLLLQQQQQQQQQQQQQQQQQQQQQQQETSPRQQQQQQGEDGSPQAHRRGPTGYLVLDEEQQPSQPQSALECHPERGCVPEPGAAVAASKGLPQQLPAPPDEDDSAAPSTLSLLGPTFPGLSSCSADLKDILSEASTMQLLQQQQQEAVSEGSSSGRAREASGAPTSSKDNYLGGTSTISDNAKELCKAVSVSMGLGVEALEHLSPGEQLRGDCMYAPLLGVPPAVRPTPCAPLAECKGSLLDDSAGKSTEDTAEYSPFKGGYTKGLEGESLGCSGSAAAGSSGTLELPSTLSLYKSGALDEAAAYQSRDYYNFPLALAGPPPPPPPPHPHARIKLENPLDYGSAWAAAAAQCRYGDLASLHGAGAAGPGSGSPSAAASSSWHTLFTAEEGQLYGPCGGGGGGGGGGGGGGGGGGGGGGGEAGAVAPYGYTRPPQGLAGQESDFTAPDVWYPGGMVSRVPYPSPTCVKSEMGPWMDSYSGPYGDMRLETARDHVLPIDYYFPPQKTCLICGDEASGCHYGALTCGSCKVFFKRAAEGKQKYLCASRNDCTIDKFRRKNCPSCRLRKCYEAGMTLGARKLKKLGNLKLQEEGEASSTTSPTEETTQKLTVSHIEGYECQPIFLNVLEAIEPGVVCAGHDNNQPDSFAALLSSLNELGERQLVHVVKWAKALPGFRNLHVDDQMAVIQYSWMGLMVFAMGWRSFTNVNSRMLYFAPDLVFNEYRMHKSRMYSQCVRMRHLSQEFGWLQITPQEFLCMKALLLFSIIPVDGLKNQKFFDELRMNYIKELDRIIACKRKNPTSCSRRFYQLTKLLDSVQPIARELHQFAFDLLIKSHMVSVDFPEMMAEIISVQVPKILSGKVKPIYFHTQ
Protocol: Degradation of Androgen Receptor protein in human LnCaP cells treated with PROTACs was quantified using the Nano-Glo® HiBiT Lytic Detection System (Promega) in 384 well assay plate format. A clonal LnCaP derived cell line was first established in which the AR gene was modified, using CRISPR/Cas9 editing, so the expressed AR protein included an 11 amino acid HiBiT tag at its amino-terminus. 10 mM DMSO stock solutions of PROTACs were prepared and diluted across an 11 concentration, 3 fold increment range, and 25 nL dispensed into a white opaque bottomed 384 well assay plate (Thermofisher) using an acoustic ECHO dispenser (Labcyte). Cells were grown in cell culture medium (RPMI 1640 supplemented with 15% FBS, penicillin 50U/mL and streptomycin 50 ug/mL (Thermofisher)). For the assay, cells were detached from flask and resuspended with assay medium (FluoroBrite™ DMEM supplemented with 10% heat inactivated FBS, penicillin 50U/mL and streptomycin 50 ug/mL (Thermofisher)). The cell suspension was centrifuged at 400 g for 5 min and the pellet resuspended in assay medium. 25 μL of cell suspension containing 10,000 cells was dispensed into each well of the assay plate containing a serial dilution of test compounds, which was then incubated for 18 h at 37° C./5% CO2. Control wells were included on each assay plate, with assay medium without cells being the no AR remaining 100% effect control, and cells treated with DMSO vehicle only, without PROTAC, the 0% effect control. 25 μL of Nano-Glo® HiBiT lysis buffer supplemented with LgBiT protein and Nano-Glo® substrate (Promega) was added to each well and the plate shaken at 500 rpm for 10 min at room temperature. The intensity of luminescence was measured using a PHERAstar microplate reader (BMG Labtech) and the % AR protein remaining in each well calculated by normalising the raw luminescence value to the above control wells. Parameters corresponding to the potency and efficacy estimates of the PROTACs were obtained from these normalised luminescence values using software (IDBS ActivityBase). These included the DC50 (concentration at which 50% of protein was degraded in M) and the Dmax (maximal degradation, in %) estimates. Two versions of the DC50, called relative DC50 and absolute DC50, were generated. These are the inflection point of a fitted 4 parameter sigmoidal response curve and the interpolated concentration of PROTAC corresponding to 50% of the protein being degraded, respectively. The corresponding pDC50 is reported as −log10(relative […]). The Dmax parameter was the maximum experimentally observed degradation and the asymptote max parameter the fitted response curve asymptote maximum.

[2] = system: Androgen Receptor, 22RV1 (AR H875Y); test: Androgen Receptor Degradation-Imaging Assay, 22RV-1 cell line; assay type: cell-based, human; conditions: 22RV-1, 16 hours treatment; for pDC50: immunofluorescence; for Dmax: maximum observed degradation

SMILES | mean relative pDC50 [1] | pDC50 [2] | Dmax [2]
COc1cc(O[C@H]2C(C)(C)[C@H](NC(=O)c3ccc(N4CCC(CN5CCC(n6ncc7c(N8CCC(=O)NC8=O)cccc76)CC5)CC4)cc3)C2(C)C)ccc1C#N [Example 15, N-((1r,3r)-3-(4-Cyano-3-methoxyphenoxy)-2,2,4,4-tetramethylcyclobutyl)-4-(4-((4-(4-(2,4-dioxotetrahydropyrimidin-1(2H)-yl)-1H-indazol-1-yl)piperidin-1-yl)methyl)piperidin-1-yl)benzamide] | ≥ 7.0 | ≥ 8.0 | ≥ 80%
COc1cc(O[C@H]2C(C)(C)[C@H](NC(=O)c3ccc(N4CCC(CN5CCC(n6ccc7c(N8CCC(=O)NC8=O)cccc76)CC5)CC4)cc3)C2(C)C)ccc1C#N [Example 16, N-((1r,3r)-3-(4-Cyano-3-methoxyphenoxy)-2,2,4,4-tetramethylcyclobutyl)-4-(4-((4-(4-(2,4-dioxotetrahydropyrimidin-1(2H)-yl)-1H-indol-1-yl)piperidin-1-yl)methyl)piperidin-1-yl)benzamide] | ≥ 7.0 | ≥ 8.0 | ≥ 80%
COc1cc(O[C@H]2C(C)(C)[C@H](NC(=O)c3ccc(N4CCC(CN5CCC(n6ncc7c(N8CCC(=O)NC8=O)cc(F)cc76)CC5)CC4)c(F)c3)C2(C)C)ccc1C#N [Example 24, N-((1r,3r)-3-(4-Cyano-3-methoxyphenoxy)-2,2,4,4-tetramethylcyclobutyl)-4-(4-((4-(4-(2,4-dioxotetrahydropyrimidin-1(2H)-yl)-6-fluoro-1H-indazol-1-yl)piperidin-1-yl)methyl)piperidin-1-yl)-3-fluorobenzamide] | ≥ 7.0 |  | 
CC1(C)[C@H](NC(=O)c2cc(F)c(N3CCC(CN4CCC(n5ncc6c(N7CCC(=O)NC7=O)cccc65)CC4)CC3)cc2F)C(C)(C)[C@H]1Oc1ccc(C#N)c2ncccc12 [Example 35, N-((1r,3r)-3-((8-Cyanoquinolin-5-yl)oxy)-2,2,4,4-tetramethylcyclobutyl)-4-(4-((4-(4-(2,4-dioxotetrahydropyrimidin-1(2H)-yl)-1H-indazol-1-yl)piperidin-1-yl)methyl)piperidin-1-yl)-2,5-difluorobenzamide] | ≥ 7.0 |  | 
